According to the supplement of paper PMC10849652:
The list shows a part of the results.

By UniProt entry, the sequences of proteins in these tests, tags left out. Where a name states a change or a piece, a line headed by the entry shows the natural chain unless it says otherwise.
UniProt Q96DA0: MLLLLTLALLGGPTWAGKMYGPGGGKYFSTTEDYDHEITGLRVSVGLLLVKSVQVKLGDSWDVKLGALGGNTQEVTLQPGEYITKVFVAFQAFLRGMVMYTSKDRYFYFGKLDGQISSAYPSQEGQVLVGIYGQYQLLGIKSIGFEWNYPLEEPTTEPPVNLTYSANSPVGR
UniProt Q9H0D6: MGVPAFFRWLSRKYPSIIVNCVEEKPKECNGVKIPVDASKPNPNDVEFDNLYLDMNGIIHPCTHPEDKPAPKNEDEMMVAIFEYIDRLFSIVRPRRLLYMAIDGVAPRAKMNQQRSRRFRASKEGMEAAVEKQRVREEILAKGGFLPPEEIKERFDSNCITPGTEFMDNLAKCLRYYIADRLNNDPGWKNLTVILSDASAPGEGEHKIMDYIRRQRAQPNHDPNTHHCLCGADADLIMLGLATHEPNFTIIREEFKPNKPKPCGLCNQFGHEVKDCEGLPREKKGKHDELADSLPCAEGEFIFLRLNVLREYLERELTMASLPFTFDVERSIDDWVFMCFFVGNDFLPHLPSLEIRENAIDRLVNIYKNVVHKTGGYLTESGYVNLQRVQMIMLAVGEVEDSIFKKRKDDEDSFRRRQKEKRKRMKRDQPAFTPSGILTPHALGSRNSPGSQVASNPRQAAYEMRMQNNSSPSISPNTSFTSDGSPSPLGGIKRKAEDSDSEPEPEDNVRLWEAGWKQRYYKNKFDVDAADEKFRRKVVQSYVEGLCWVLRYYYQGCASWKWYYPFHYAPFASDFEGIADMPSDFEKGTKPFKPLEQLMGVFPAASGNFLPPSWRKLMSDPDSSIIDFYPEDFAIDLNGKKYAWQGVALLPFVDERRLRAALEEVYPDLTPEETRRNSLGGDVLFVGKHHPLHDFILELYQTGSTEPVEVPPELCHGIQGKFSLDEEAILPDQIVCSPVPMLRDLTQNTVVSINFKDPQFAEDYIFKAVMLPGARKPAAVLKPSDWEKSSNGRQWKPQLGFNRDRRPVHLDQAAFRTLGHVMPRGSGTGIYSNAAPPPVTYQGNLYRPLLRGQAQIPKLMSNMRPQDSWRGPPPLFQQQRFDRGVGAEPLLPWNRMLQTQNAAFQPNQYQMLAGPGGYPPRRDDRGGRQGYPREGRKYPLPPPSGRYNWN
UniProt Q7Z739: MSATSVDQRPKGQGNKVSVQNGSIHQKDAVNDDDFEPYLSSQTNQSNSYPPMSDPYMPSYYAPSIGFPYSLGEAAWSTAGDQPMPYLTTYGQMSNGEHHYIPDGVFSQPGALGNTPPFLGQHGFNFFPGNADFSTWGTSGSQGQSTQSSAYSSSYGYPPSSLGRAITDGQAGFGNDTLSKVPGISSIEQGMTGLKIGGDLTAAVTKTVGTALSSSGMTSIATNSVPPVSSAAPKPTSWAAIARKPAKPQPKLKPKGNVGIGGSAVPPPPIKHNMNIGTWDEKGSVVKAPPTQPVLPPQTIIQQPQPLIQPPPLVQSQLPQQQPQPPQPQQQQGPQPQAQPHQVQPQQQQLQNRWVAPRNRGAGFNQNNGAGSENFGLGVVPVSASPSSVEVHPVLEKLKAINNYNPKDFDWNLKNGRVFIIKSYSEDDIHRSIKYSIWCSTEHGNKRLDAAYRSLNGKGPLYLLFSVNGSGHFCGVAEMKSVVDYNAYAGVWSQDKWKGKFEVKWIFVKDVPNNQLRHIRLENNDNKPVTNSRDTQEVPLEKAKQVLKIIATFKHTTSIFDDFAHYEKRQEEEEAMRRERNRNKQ
UniProt A8MPS7: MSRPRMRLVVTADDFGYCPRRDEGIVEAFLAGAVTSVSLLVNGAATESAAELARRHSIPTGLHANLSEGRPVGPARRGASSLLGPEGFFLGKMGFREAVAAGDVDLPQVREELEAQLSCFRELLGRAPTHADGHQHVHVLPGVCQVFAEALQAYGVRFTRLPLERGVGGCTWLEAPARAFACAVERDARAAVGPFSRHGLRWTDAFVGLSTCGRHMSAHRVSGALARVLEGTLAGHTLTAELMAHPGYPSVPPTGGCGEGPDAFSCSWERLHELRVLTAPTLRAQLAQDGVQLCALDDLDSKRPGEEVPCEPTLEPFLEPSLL
UniProt Q9GZM5: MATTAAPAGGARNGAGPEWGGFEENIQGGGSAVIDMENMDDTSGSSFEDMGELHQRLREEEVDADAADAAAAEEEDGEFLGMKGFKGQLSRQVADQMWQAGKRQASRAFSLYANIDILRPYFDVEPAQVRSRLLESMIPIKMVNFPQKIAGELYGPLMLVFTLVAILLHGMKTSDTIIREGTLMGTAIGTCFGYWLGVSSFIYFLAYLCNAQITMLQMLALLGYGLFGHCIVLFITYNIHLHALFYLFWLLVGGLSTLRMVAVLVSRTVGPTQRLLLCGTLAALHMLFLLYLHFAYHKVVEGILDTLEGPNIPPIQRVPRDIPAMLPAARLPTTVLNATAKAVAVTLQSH
UniProt Q8NBI6: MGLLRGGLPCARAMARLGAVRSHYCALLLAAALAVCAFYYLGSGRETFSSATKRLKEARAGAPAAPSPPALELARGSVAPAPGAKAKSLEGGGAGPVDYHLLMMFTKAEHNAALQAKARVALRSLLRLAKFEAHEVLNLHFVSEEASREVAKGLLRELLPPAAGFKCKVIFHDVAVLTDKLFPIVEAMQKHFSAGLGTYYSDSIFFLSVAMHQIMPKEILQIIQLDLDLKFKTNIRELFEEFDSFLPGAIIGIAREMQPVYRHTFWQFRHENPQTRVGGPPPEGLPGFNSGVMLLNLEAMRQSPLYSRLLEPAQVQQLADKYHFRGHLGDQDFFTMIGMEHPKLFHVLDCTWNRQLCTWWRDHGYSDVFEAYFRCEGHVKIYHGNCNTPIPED
UniProt Q96KR1: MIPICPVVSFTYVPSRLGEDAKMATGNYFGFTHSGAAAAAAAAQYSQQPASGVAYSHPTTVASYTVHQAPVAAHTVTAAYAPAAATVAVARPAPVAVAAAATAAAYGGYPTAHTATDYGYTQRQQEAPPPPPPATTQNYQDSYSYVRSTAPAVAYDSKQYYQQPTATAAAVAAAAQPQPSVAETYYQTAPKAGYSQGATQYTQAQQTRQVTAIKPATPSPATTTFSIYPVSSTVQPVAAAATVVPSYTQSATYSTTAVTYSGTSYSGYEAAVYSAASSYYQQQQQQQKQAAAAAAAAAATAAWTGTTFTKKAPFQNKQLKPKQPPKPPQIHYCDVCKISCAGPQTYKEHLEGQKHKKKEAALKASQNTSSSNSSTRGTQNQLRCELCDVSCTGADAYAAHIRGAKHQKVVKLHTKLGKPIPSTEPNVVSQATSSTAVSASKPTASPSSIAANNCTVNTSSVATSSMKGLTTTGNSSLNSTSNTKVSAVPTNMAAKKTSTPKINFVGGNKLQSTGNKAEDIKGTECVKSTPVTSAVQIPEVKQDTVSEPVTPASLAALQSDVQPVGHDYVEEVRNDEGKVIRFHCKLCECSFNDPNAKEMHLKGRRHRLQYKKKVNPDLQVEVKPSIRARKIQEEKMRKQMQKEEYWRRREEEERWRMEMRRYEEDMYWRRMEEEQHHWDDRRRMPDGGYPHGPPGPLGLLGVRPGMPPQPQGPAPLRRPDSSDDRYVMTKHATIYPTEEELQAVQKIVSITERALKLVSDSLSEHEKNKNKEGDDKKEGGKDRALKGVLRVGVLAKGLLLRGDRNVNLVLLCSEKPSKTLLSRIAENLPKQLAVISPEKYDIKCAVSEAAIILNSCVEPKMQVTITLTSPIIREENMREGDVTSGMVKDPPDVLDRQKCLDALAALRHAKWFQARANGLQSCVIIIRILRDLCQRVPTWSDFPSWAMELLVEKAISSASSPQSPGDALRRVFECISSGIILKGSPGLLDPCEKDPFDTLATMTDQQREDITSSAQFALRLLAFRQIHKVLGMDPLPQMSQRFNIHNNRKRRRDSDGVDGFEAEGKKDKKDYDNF
UniProt P54577: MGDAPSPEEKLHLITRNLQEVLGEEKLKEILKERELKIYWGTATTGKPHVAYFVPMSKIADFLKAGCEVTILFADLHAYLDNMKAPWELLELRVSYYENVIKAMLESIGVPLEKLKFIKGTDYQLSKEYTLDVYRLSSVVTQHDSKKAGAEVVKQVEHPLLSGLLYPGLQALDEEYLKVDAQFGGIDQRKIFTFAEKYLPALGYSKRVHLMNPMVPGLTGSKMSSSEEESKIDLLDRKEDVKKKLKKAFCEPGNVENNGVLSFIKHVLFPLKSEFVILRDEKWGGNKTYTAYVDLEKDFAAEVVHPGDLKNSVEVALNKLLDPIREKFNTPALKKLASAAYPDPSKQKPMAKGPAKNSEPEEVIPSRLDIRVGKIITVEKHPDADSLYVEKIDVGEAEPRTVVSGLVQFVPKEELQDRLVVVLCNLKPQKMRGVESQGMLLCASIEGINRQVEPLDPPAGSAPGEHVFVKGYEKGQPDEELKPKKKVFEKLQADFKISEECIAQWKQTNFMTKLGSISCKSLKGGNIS
UniProt Q9C0E2: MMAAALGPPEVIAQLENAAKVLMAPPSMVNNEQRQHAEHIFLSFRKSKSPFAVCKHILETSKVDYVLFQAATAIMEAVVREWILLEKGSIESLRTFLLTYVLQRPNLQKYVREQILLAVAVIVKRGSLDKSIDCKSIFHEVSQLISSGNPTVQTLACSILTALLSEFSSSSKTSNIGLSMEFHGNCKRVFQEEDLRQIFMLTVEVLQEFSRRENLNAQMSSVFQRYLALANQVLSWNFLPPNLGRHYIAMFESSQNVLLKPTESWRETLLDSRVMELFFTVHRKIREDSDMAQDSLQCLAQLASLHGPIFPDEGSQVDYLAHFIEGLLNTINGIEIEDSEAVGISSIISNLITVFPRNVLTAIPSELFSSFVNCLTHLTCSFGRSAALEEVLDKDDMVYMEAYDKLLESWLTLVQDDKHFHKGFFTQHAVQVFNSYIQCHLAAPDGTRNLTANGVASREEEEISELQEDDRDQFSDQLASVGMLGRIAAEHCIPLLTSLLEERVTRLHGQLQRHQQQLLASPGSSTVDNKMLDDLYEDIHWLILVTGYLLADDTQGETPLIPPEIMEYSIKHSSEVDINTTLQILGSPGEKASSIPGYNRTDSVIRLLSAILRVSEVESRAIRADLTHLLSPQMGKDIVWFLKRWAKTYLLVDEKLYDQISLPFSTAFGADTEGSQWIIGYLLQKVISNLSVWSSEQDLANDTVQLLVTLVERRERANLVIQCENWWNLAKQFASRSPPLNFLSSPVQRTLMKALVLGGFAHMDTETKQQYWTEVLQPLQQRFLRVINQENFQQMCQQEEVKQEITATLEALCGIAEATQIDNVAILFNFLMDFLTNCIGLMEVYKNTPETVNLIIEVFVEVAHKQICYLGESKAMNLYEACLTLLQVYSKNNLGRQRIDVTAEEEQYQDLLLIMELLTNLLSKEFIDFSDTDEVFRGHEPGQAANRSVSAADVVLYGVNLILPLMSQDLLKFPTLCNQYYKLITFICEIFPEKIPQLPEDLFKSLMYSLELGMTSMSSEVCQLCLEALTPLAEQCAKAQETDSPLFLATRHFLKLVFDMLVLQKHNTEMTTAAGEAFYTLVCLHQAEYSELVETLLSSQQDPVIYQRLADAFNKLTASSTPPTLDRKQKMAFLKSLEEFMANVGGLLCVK
UniProt Q86U90: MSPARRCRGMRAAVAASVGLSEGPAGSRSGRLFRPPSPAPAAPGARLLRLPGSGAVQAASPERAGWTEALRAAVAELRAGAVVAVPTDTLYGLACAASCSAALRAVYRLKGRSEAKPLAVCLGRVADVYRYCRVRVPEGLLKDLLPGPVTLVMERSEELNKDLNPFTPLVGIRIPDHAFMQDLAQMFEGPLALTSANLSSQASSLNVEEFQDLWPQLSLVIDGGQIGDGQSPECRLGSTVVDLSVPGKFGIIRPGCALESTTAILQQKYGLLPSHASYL
UniProt Q9UQR1: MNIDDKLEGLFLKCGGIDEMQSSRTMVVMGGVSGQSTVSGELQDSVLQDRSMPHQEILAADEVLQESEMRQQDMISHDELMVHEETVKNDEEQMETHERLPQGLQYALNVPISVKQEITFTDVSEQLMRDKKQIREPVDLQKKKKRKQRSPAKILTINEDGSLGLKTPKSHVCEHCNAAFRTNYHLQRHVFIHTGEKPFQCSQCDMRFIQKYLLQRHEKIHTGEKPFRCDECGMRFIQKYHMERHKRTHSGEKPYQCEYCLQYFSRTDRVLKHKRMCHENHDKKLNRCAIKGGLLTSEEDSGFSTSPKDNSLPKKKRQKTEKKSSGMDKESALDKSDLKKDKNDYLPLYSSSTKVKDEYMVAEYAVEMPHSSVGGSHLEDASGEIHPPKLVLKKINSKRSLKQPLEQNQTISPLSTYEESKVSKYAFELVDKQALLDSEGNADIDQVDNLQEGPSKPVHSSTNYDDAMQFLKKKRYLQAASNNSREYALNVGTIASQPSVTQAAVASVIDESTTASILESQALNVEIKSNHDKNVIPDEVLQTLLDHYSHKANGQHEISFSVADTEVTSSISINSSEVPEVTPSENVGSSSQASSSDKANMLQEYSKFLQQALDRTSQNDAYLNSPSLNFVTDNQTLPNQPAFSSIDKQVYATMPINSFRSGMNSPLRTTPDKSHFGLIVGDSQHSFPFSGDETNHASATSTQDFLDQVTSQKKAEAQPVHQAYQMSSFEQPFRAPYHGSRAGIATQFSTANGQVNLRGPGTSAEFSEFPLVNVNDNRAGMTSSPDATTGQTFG

Compound: CS(=O)(=O)c1ccc(-c2cnc(N)c(C(=O)Nc3ccccc3)n2)cc1
Experiment: log2 fold change, soluble protein after heating vs DMSO (PISA); higher = thermal stabilisation; K562 cells, 10 uM, 30 min; active = over 0.2 and 3.5 SD of the protein, either way, in both replicates (recomputed)
Summary of the method: (§1)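 Soluble protein was quantified by TMTpro 16plex LC-MS/MS after channel sums were equalised. It was obtained as the supernatant after 21,000xg for 90 min from pooled aliquots of K562 cells (2×10^6 cells/mL, 10 μM compound, 30 min) heated for 3 min across 48°C-58°C and extracted in PBS with 0.5% NP-40 at 4°C. Thermal stability values are relative to control samples and come from duplicates. They are given as log2 fold changes.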

Target	log2 fold change
ZG16B (UniProt Q96DA0)	inactive: 0.007
ZBTB17 isoform 2 (UniProt Q13105)	inactive: -0.013
XRN2 (UniProt Q9H0D6)	inactive: -0.002
ZC3HAV1 (UniProt Q7Z2W4)	inactive: 0.035
YTHDF3 (UniProt Q7Z739)	inactive: 0.011
YDJC (UniProt A8MPS7)	inactive: 0.067
YIPF3 (UniProt Q9GZM5)	inactive: -0.026
XXYLT1 (UniProt Q8NBI6)	inactive: 0.009
ZFR (UniProt Q96KR1)	inactive: -0.205
YARS (UniProt P54577)	inactive: 0.023
ZFYVE1 (UniProt Q9HBF4)	inactive: -0.028
XPO4 (UniProt Q9C0E2)	inactive: 0.034
YRDC (UniProt Q86U90)	inactive: 0.031
ZNF148 (UniProt Q9UQR1)	inactive: 0.056
ZCCHC17 (UniProt Q9NP64)	inactive: -0.069

Compound: C[C@@H](Oc1cc(-c2cnn(C3CCNCC3)c2)cnc1N)c1c(Cl)ccc(F)c1Cl [crizotinib]
Experiment: as above
Summary of the method: as §1

Target	log2 fold change
ZNF24 (UniProt P17028)	inactive: 0.004
ZFAND2B (UniProt Q8WV99)	inactive: 0.055
YME1L1 (UniProt Q96TA2)	inactive: -0.019
YIF1B (UniProt Q5BJH7)	inactive: 0.039
YEATS4 (UniProt O95619)	inactive: 0.001
YWHAH (UniProt Q04917)	inactive: 0.03
YKT6 (UniProt O15498)	inactive: 0.039
YTHDF2 (UniProt Q9Y5A9)	inactive: -0.002
ZCCHC3 (UniProt Q9NUD5)	inactive: 0.009
YJU2 (UniProt Q9BW85)	inactive: 0.173
ZFYVE16 (UniProt Q7Z3T8)	inactive: -0.022
ZFYVE19 (UniProt Q96K21)	inactive: 0.02
YWHAE (UniProt P62258)	inactive: 0.038
ZDHHC18 (UniProt Q9NUE0)	inactive: 0.016
ZFYVE27 isoform 2 (UniProt Q5T4F4)	inactive: -0.139
YARS2 (UniProt Q9Y2Z4)	inactive: 0.125
YWHAG (UniProt P61981)	inactive: 0.035

Target	log2 fold change
ZCCHC8 (UniProt Q6NZY4)	inactive: -0.004
ZBTB8OS (UniProt Q8IWT0)	inactive: -0.089
ZC3H4 (UniProt Q9UPT8)	inactive: 0.012
XPR1 (UniProt Q9UBH6)	inactive: 0.037
XPO7 (UniProt E7ESC6)	inactive: 0.014
XRN2 (UniProt Q9H0D6)	inactive: -0.009
ZC3HAV1 (UniProt Q7Z2W4)	inactive: -0.045
YTHDF3 (UniProt Q7Z739)	inactive: -0.02
YDJC (UniProt A8MPS7)	inactive: -0.074
YIPF3 (UniProt Q9GZM5)	inactive: 0.036
XXYLT1 (UniProt Q8NBI6)	inactive: -0.045
ZFR (UniProt Q96KR1)	inactive: -0.097
YARS (UniProt P54577)	inactive: -0.07
ZFYVE1 (UniProt Q9HBF4)	inactive: 0.007
XPO4 (UniProt Q9C0E2)	inactive: 0.012
YRDC (UniProt Q86U90)	inactive: -0.063
ZNF148 (UniProt Q9UQR1)	inactive: 0.051

Compound: C[C@@H]1COCCN1C2=NC(=NC(=C2)C3(CC3)S(=O)(=O)C)C4=C5C=CNC5=CC=C4
Experiment: as above
Summary of the method: as §1

Target	log2 fold change
ZNF24 (UniProt P17028)	inactive: -0.37
ZFAND2B (UniProt Q8WV99)	inactive: 0.054
YME1L1 (UniProt Q96TA2)	inactive: -0.008
YIF1B (UniProt Q5BJH7)	inactive: -0.006
YEATS4 (UniProt O95619)	inactive: 0.009
YWHAH (UniProt Q04917)	inactive: 0.105
YKT6 (UniProt O15498)	inactive: 0.009
YTHDF2 (UniProt Q9Y5A9)	inactive: -0.08
ZCCHC3 (UniProt Q9NUD5)	inactive: -0.31
YJU2 (UniProt Q9BW85)	inactive: 0.008
ZFYVE16 (UniProt Q7Z3T8)	inactive: 0.067
ZFYVE19 (UniProt Q96K21)	inactive: 0.078
YWHAE (UniProt P62258)	inactive: 0.013
ZDHHC18 (UniProt Q9NUE0)	inactive: -0.035
ZFYVE27 isoform 2 (UniProt Q5T4F4)	inactive: -0.087
YARS2 (UniProt Q9Y2Z4)	inactive: 0.201
YWHAG (UniProt P61981)	inactive: -0.033

Target	log2 fold change
ZCCHC8 (UniProt Q6NZY4)	inactive: -0.007
ZBTB8OS (UniProt Q8IWT0)	inactive: 0.079
ZC3H4 (UniProt Q9UPT8)	inactive: -0.324
XPR1 (UniProt Q9UBH6)	inactive: 0.084
XPO7 (UniProt E7ESC6)	inactive: 0.059
XRN2 (UniProt Q9H0D6)	inactive: -0.031
ZC3HAV1 (UniProt Q7Z2W4)	inactive: -0.419
YTHDF3 (UniProt Q7Z739)	inactive: -0.015
YDJC (UniProt A8MPS7)	inactive: -0.002
YIPF3 (UniProt Q9GZM5)	inactive: 0.038
XXYLT1 (UniProt Q8NBI6)	inactive: 0.019
ZFR (UniProt Q96KR1)	inactive: -0.373
YARS (UniProt P54577)	inactive: -0.001
ZFYVE1 (UniProt Q9HBF4)	inactive: -0.052
XPO4 (UniProt Q9C0E2)	inactive: 0.06
YRDC (UniProt Q86U90)	inactive: 0.055
ZNF148 (UniProt Q9UQR1)	inactive: -0.026
